Some of the results follow. The main result of the screen is listed elsewhere. These columns were measured beside it and carry no call. Compounds called inactive in the main read-out are mostly missing here. Potencies come from curve fits of mixed quality, noted in brackets.
Assay: qHTS Assay for Lipid Storage Modulators in Drosophila S3 Cells;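 on cell number change: cells counted by Cell Tracker Red CMTPX staining in the red channel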
Conditions: BODIPY lipid droplet fluorescence, 18-24 h; for cell number change: measured here: cell count max response, cells fed with added oleic acid
Procedure, shortened: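 Drosophila S3 cells got compounds at several concentrations plus oleic acid (400 uM solution). Laser-scanning cytometry with 488 nm excitation read lipid droplets at 500-530 nm and cells at 575-640 nm. Percent activity was relative to 20 uM Triacsin C.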

[1] = measured here: lipid fluorescence (Fed channel) AC50, cells fed with added oleic acid
[2] = measured here: cell number channel AC50, cells fed with added oleic acid

In the case of `O=C(c1cc(-c2ccc(Br)cc2)n[nH]1)N1CCN(C(=O)c2ccccc2Br)CC1`, the cell number change is reported as -30% and the AC50 [1] is reported as 1.46 µM [rising, partial curve].

In the case of `CC(=O)Nc1ccc(C(=O)NNS(=O)(=O)c2ccc(C)cc2)cc1`, the cell number change is reported as -39.2%, the AC50 [2] is reported as 0.259 µM [falling, full curve, poor fit] and the AC50 [1] is reported as 1.16 µM [falling, full curve].

With `CCCOc1ccc(N2C(=O)CC(N3CCN(CCN=CC4=C(O)CC(C)(C)CC4=O)CC3)C2=O)cc1` (stereo not drawn) the cell number change was -50.5%, the AC50 [2] was 29.1 µM [falling, single point] and the AC50 [1] was 29.1 µM [falling, single point].

With `Cc1ccc([N+](=O)[O-])cc1NC(=O)Nc1ccc(S(N)(=O)=O)cc1` the cell number change was 26.5% and the AC50 [1] was 0.184 µM [falling, full curve].

For `Oc1ccccc1-c1csc(-c2ccccc2)n1`, the cell number change was -14.1% and the AC50 [1] was 2.59 µM [falling, partial curve, poor fit].

With `C=CCOc1nc2c(c(=O)n(C)c(=O)n2C)n1Cc1ccccc1Cl` the AC50 [2] was 0.092 µM [rising, full curve, poor fit] and the AC50 [1] was 0.13 µM [rising, full curve, poor fit].

For `Cc1cc(C)cc(NC(=O)Nc2ccc(-n3ccc(C(F)(F)F)n3)cc2)c1`, the cell number change was -10.3%, the AC50 [2] was 0.461 µM [rising, single point] and the AC50 [1] was 29.1 µM [falling, single point].

In the case of `O=C(Nc1ccccc1)c1ccc2nc(-c3ccco3)c(-c3ccco3)nc2c1`, the AC50 [1] is reported as 6.51 µM [rising, single point].

In the case of `Cc1ccc2nc(Cl)c(C3CC(c4cccs4)=NN3C(=O)CCCC(=O)O)cc2c1` (stereo not drawn), the cell number change is reported as -100%, the AC50 [2] is reported as 29.1 µM [falling, single point] and the AC50 [1] is reported as 4.61 µM [falling, full curve].

In the case of `O=c1/c(=C\c2cc([N+](=O)[O-])cc([N+](=O)[O-])c2O)sc2nc3ccccc3n12`, the cell number change is reported as -15% and the AC50 [1] is reported as 32.6 µM [falling, single point].

For `CC(=O)c1cn(CCOc2ccc(F)cc2)c2ccccc12`, the cell number change was -24.1% and the AC50 [1] was 29.1 µM [falling, single point].

In the case of `CC(C)C[C@@H](CO)N1CCN(CCc2ccccc2)CCC1=O`, the cell number change is reported as 24.6%.

In the case of `Cc1[nH]n(-c2nc(-c3ccc(Cl)cc3)cs2)c(=O)c1N=Nc1ccc(O)cc1`, the cell number change is reported as -37.9%, the AC50 [2] is reported as 4.11 µM [falling, full curve] and the AC50 [1] is reported as 20.6 µM [falling, partial curve].

In the case of `CCOC(=O)/C(C#N)=C\c1ccc(N2CCN(C/C=C/c3ccccc3)CC2)cc1`, the cell number change is reported as -0.87% and the AC50 [1] is reported as 29.1 µM [falling, single point].

With `Cc1ccc(CCN2C(=O)c3ccc(C(=O)O)cc3C2=O)cc1` the cell number change was 22.3% and the AC50 [1] was 14.6 µM [rising, single point].

In the case of `COc1ccc(OC)c(Nc2nc3ccc(C)cc3n3cnnc23)c1`, the cell number change is reported as -24.3% and the AC50 [1] is reported as 9.2 µM [falling, single point].

For `Cc1c(NS(=O)(=O)N2CCCCC2)c(=O)n(-c2ccccc2)n1C`, the cell number change was -5.11% and the AC50 [1] was 4.11 µM [falling, single point].

In the case of `CC1CCCC(NC(=O)COC(=O)Cc2ccsc2)C1C` (stereo not drawn), the cell number change is reported as -44%, the AC50 [2] is reported as 2.91 µM [falling, full curve] and the AC50 [1] is reported as 7.31 µM [falling, partial curve].

In the case of `CCCCS(=O)(=O)N1CN(S(=O)(=O)CCCC)C2NC(=O)NC21` (stereo not drawn), the AC50 [1] is reported as 2.91 µM [falling, partial curve].

For `CC1CC(C)CN(C(=S)Nc2ccc3nc4n(c(=O)c3c2)CCCCC4)C1` (stereo not drawn), the cell number change was 17.2% and the AC50 [1] was 29.1 µM [rising, single point].

`O=C(CSc1nnc(NC(=O)c2ccc(F)cc2)s1)NC1CCCC1` showed a cell number change of 23.3%.

With `Cc1ccc(CNC(=O)CN(Cc2cccs2)C(=O)C2(C)CC(=O)N=C3C=CC=CN32)cc1` (stereo not drawn) the cell number change was -56.7%, the AC50 [2] was 29.1 µM [falling, single point] and the AC50 [1] was 9.2 µM [falling, single point].

For `COc1cccc(CNc2nc(-c3cccnc3)nc3ccccc23)c1`, the cell number change was -13.8% and the AC50 [2] was 0.731 µM [rising, full curve, poor fit].

With `Cc1ccc(C)c(NC(=O)CN2C(=O)CC(C)S(=O)(=O)c3ccccc32)c1` (stereo not drawn) the cell number change was -23.7%.

With `O=C(NCc1ccco1)c1ccc(Cl)s1` the cell number change was 6.73%, the AC50 [2] was 1.84 µM [rising, partial curve] and the AC50 [1] was 2.06 µM [rising, partial curve].

With `O=Cc1ccc(OCC(=O)NCC2CCCO2)cc1` (stereo not drawn) the cell number change was 22.4% and the AC50 [1] was 1.58 µM [rising, full curve].

For `COC(=O)c1[nH]c2cccc(Cl)c2c1NC(=O)CN1CCN(CCO)CC1`, the cell number change was 1.52%, the AC50 [2] was 0.103 µM [falling, full curve, poor fit] and the AC50 [1] was 0.0731 µM [falling, full curve, poor fit].

With `O=C(NCc1ccc(Cl)cc1)c1cc2ccccn2n1` the AC50 [1] was 29.1 µM [rising, single point].

With `O=C(CN1C(=O)c2cccc([N+](=O)[O-])c2C1=O)OCC(=O)N1CCCCC1` the cell number change was -96.7%, the AC50 [2] was 29.1 µM [falling, single point] and the AC50 [1] was 29.1 µM [falling, single point].

In the case of `C=CCC1C=CCC(CC=C)N1C(=O)c1ccccc1[N+](=O)[O-]` (stereo not drawn), the cell number change is reported as 44.7% and the AC50 [2] is reported as 6.51 µM [falling, single point].

With `COc1cc(C=O)ccc1OCCCOc1ccccc1[N+](=O)[O-]` the cell number change was -21.5%, the AC50 [2] was 0.00517 µM [falling, full curve, poor fit] and the AC50 [1] was 25.9 µM [rising, partial curve].

In the case of `COC(=O)c1sccc1NC(=O)/C=C/c1c(Cl)cccc1Cl`, the cell number change is reported as -8.13% and the AC50 [1] is reported as 4.11 µM [rising, single point].

For `COc1ccc(S(=O)(=O)N(CC(=O)Nc2ccccc2C(=O)N2CCOCC2)c2ccc(F)cc2)cc1`, the cell number change was -22.5% and the AC50 [1] was 0.092 µM [falling, full curve, poor fit].

For `CCOC(=O)c1cnc(-n2nc(C)cc2C)nc1NCc1ccccc1`, the AC50 [2] was 1.84 µM [rising, partial curve] and the AC50 [1] was 1.46 µM [rising, partial curve].
